Source: PubChem BioAssay AID540256 (National Center for Advancing Translational Sciences (NCATS), 2011)
Screen size: about 300,000 compounds; about 3,700 (1.2%) were called active. The shares of active, inactive and inconclusive entries below differ from those in the screen. Calls come from the whole dose curve; tested in HEK293 cells. Potencies beside an inconclusive call are fits to weak or partial responses and may not hold up.

Test: qHTS for Inhibitors of binding or entry into cells for Lassa Virus; note: nearly all actives have a fitted effect of over 50% in size
Conditions: Lassa virus pseudotype entry inhibition, cell reporter; series mostly up to 37.9 µM
Potency is the fitted concentration of half-maximal effect.

| Compound | Potency |
| --- | --- |
| COc1ccc(NC(=O)CC2C(=O)N(c3cccc(C)c3)C(=O)N2C2CCCCC2)cc1 (configuration not stated) | inconclusive: 11.2 µM [inhibitor, partial curve, poor fit] |
| CC(C)(C)c1cc(C(=O)NNc2cc(C(F)(F)F)ccc2Cl)n(Cc2ccccc2)n1 | inconclusive: 35.5 µM [inhibitor, single point] |
| C[C@H](NC(=O)c1ccc(Cl)cc1)C(=O)NCCc1ccc(S(N)(=O)=O)cc1 | inconclusive: 31.6 µM [inhibitor, partial curve, poor fit] |
| Cc1ccc(NS(=O)(=O)c2c(C)[nH]c(=O)[nH]c2=O)c(C)c1 | inconclusive: 3.16 µM [inhibitor, partial curve, poor fit] |
| CCCCN1CC2([N+](=O)[O-])C=CC(=O)C([N+](=O)[O-])(C1)C2CC(=O)c1ccccc1 (configuration not stated) | inconclusive: 3.55 µM [inhibitor, single point] |
| O=C(Cc1ccccc1)Nn1c(O)c(/C=C2\C=Nc3ccccc32)sc1=S | inconclusive: 14.1 µM [inhibitor, partial curve] |
| COc1ccc(-c2ccc(NS(=O)(=O)c3ccc(C(C)=O)cc3)cc2)nn1 | inconclusive: 15.8 µM [activator, partial curve, poor fit] |
| CCCOC(=O)c1ccc(OCC(O)CN2CCN(C(=O)c3ccccc3)CC2)cc1 (configuration not stated) | inconclusive: 35.5 µM [inhibitor, partial curve, poor fit] |
| CCCn1c(O)c2ccc(C(=O)N=NC(=O)c3cccnc3)cc2c1O | inactive |
| CCOc1ccc(CCNC(=O)CCCn2nc(C)c3sc4ccccc4c3c2=O)cc1 | inconclusive: 3.98 µM [inhibitor, full curve] |
| CC(n1cnnn1)C12CC3CC(CC(C3)C1)C2 (configuration not stated) | inconclusive: 6.31 µM [inhibitor, single point] |
| CCOC(=O)c1c(-c2ccccc2)n(C)c2ccc(O)cc12 | inconclusive: 29.1 µM [inhibitor, single point] |
| COC(CNC(=O)c1ccc2c3c(onc13)-c1ccccc1C2=O)OC | inconclusive: 10 µM [inhibitor, partial curve, poor fit] |
| CCCCN(C)CCCNC(=O)c1cc(-c2ccc(Br)s2)nc2ccccc12 | inconclusive: 35.5 µM [inhibitor, single point] |
| Cc1cc(=O)oc2ccc(OCC(=O)NCc3ccco3)cc12 | inactive |
| N#Cc1c(N2CCOCC2)nsc1-c1ccccc1 | inconclusive: 5.62 µM [activator, single point] |
| COc1ccc(NC(=O)CSc2nnc(NC(=O)Nc3ccc(OC)cc3)s2)cc1 | inactive |
| COc1cccc(C(C(=O)NC2CCCC2)N(C(=O)c2ccco2)c2ccc(NC(C)=O)cc2)c1OC (configuration not stated) | inactive |
| CN(C)c1ccc(/C=N/NC(=S)NCc2ccco2)cc1 | active: 2.06 µM |
| COc1cccc(CNC(=O)C2CCN(S(=O)(=O)N3CCCCC3)CC2)c1 | inconclusive: 5.8 µM [activator, partial curve, poor fit] |
| Cc1cccc2nc(CSc3ccc(Cl)cc3)cn12 | inconclusive: 6.31 µM [activator, full curve, poor fit] |
| CN(Cc1ccccc1)S(=O)(=O)c1cc(Br)cc2c1N(C(=O)C1CC1)CC2 | inconclusive: 22.4 µM [inhibitor, single point] |
| CCOc1c(CNCc2ccc(C(=O)O)cc2)cccc1OC | inconclusive: 31.6 µM [activator, single point] |

Structural class, the entries above containing sulfur (twelve)

| Compound | Potency |
| --- | --- |
| C[C@H](NC(=O)c1ccc(Cl)cc1)C(=O)NCCc1ccc(S(N)(=O)=O)cc1 | inconclusive: 31.6 µM [inhibitor, partial curve, poor fit] |
| Cc1ccc(NS(=O)(=O)c2c(C)[nH]c(=O)[nH]c2=O)c(C)c1 | inconclusive: 3.16 µM [inhibitor, partial curve, poor fit] |
| O=C(Cc1ccccc1)Nn1c(O)c(/C=C2\C=Nc3ccccc32)sc1=S | inconclusive: 14.1 µM [inhibitor, partial curve] |
| COc1ccc(-c2ccc(NS(=O)(=O)c3ccc(C(C)=O)cc3)cc2)nn1 | inconclusive: 15.8 µM [activator, partial curve, poor fit] |
| CCOc1ccc(CCNC(=O)CCCn2nc(C)c3sc4ccccc4c3c2=O)cc1 | inconclusive: 3.98 µM [inhibitor, full curve] |
| CCCCN(C)CCCNC(=O)c1cc(-c2ccc(Br)s2)nc2ccccc12 | inconclusive: 35.5 µM [inhibitor, single point] |
| N#Cc1c(N2CCOCC2)nsc1-c1ccccc1 | inconclusive: 5.62 µM [activator, single point] |
| COc1ccc(NC(=O)CSc2nnc(NC(=O)Nc3ccc(OC)cc3)s2)cc1 | inactive |
| CN(C)c1ccc(/C=N/NC(=S)NCc2ccco2)cc1 | active: 2.06 µM |
| COc1cccc(CNC(=O)C2CCN(S(=O)(=O)N3CCCCC3)CC2)c1 | inconclusive: 5.8 µM [activator, partial curve, poor fit] |
| Cc1cccc2nc(CSc3ccc(Cl)cc3)cn12 | inconclusive: 6.31 µM [activator, full curve, poor fit] |
| CN(Cc1ccccc1)S(=O)(=O)c1cc(Br)cc2c1N(C(=O)C1CC1)CC2 | inconclusive: 22.4 µM [inhibitor, single point] |

The results go on.

| Compound | Potency |
| --- | --- |
| CCC(C(=O)Nc1c(C)cc(C)cc1C)n1c(=O)c(-c2ccccc2NC(C)=O)nc2ccccc21 (configuration not stated) | inconclusive: 17.8 µM [inhibitor, single point] |
| S=C(NCCc1ccccc1)NC1CC1 | inactive |
| COc1ccc(C2c3[nH]c4ccccc4c3CCN2C(=O)c2cn3ccccc3n2)c(F)c1 (configuration not stated) | inconclusive: 11.2 µM [inhibitor, partial curve, poor fit] |
| O=C(CCN1C(=O)C2C3CC(C(Br)C3Br)C2C1=O)OCC(=O)c1cccc([N+](=O)[O-])c1 (configuration not stated) | inactive |
| COc1ccc(/C=C/C(=O)NC(=S)NNC(=O)c2ccco2)cc1 | active: 4.47 µM |
| Cc1c(O)ccc(C(=O)COc2ccc(F)cc2)c1O | inactive |
| CCOC(=O)Nc1ccc(S(=O)(=O)NC2CCCCC2)cc1 | inconclusive: 29.1 µM [inhibitor, single point] |
| CCOc1ccccc1N(CC(=O)NCCSc1ccccc1)S(=O)(=O)c1ccccc1 | inconclusive: 17.8 µM [inhibitor, single point] |
| Cc1ccc(C(=O)Nc2cc3nn(-c4ccccc4)nc3cc2Cl)c(C)c1 | inactive |
| CC(C)c1ccc(CN(Cc2ccco2)c2cnc(S(C)(=O)=O)nc2C(=O)Nc2ccc(F)cc2)cc1 | inconclusive: 5.62 µM [inhibitor, full curve, poor fit] |
| COc1ccc(C(=O)CN2C(=O)C(C)(C)Oc3ccc(C(=O)N4CCCCCC4)cc32)cc1 | inconclusive: 5.01 µM [inhibitor, full curve, poor fit] |
| Cc1nnc(SCCn2c(N3CCC(Cc4ccccc4)CC3)nc3c2c(=O)[nH]c(=O)n3C)s1 | inconclusive: 10 µM [inhibitor, partial curve] |
| CC(C)NC(=O)Cn1cc(C(=O)c2ccccc2F)c2ccccc21 | inconclusive: 0.411 µM [activator, partial curve, poor fit] |
| COc1ccc(N=CC2=C(O)c3ccccc3C2=O)c(OC)c1 | active: 2.51 µM |
| CC(C)=CCC/C(C)=C/C=N/NC(=O)c1ccc([N+](=O)[O-])cc1 | inactive |
| Cc1ccccc1-c1nc2cc(NC(=O)Cc3ccc(Cl)cc3)ccc2o1 | inactive |
| Cc1cc(N2CCN(Cc3ccccc3)CC2)n2nc(C)c(-c3ccccc3)c2n1 | inactive |
| CCCCCCOc1ccc(C2C(=O)N(C3CCCCC3)CC(=O)N2CCC)cc1 (configuration not stated) | inactive |
| O=C(Cc1ccccc1)NCC(=O)OC(c1ccccc1)c1ccccc1 | inconclusive: 22.4 µM [inhibitor, single point] |
| CCOC(=O)C1=C(O)/C(=C/c2ccccn2)SC1=Nc1ccc(Cl)cc1 | inconclusive: 35.5 µM [inhibitor, single point] |
| N#Cc1c(N)nc(N2CCCC2)c(C#N)c1-c1ccc(Cl)cc1 | inconclusive: 18.3 µM [inhibitor, partial curve, poor fit] |
| C(=Cc1c[nH]c2ccccc12)c1nccc2ccccc12 | inconclusive: 7.08 µM [inhibitor, partial curve, poor fit] |
| Cc1ccc(N(CC(=O)NCCSCc2ccco2)S(C)(=O)=O)cc1 | inactive |

Filtered by structure: the compounds so far containing a thiophene ring, fused or not

| Compound | Potency |
| --- | --- |
| CCOc1ccc(CCNC(=O)CCCn2nc(C)c3sc4ccccc4c3c2=O)cc1 | inconclusive: 3.98 µM [inhibitor, full curve] |
| CCCCN(C)CCCNC(=O)c1cc(-c2ccc(Br)s2)nc2ccccc12 | inconclusive: 35.5 µM [inhibitor, single point] |

Further structures.

| Compound | Potency |
| --- | --- |
| O=C(c1ccc2c(=O)n(CCc3ccccc3)c(=O)[nH]c2c1)N1CCN(c2ccc(F)cc2)CC1 | inconclusive: 6.31 µM [inhibitor, partial curve, poor fit] |
| Cc1nn(-c2ccccc2)c2c1N(CC(=O)N1CCN(c3cccc(Cl)c3)CC1)C(=O)CS2 | inactive |
| Clc1ccc2nc(N3CCNCC3)nc(-c3ccccc3)c2c1 | inconclusive: 0.891 µM [inhibitor, full curve, poor fit] |
| COc1ccccc1N1CCN(C(=O)Cn2cnc3onc(-c4ccc(F)cc4)c3c2=O)CC1 | inactive |
| Cc1cccc(NC(=S)NC(=O)c2ccco2)n1 | inconclusive: 5.01 µM [activator, partial curve, poor fit] |
| C/C(=N\NC(=O)c1nnn(-c2nonc2N)c1-c1cccs1)c1ccc(C)cc1 | inconclusive: 6.31 µM [inhibitor, single point] |
| CCCCN(C)C(=O)C1CCCN(c2ncnc3onc(C)c23)C1 (configuration not stated) | inactive |
| CCOc1ccccc1NC(=O)CNC(=O)c1nn(-c2ccc(OC)c(OC)c2)c(=O)c2ccccc12 | inconclusive: 35.5 µM [inhibitor, single point] |
| Cc1nc(SCC(=O)NCc2ccco2)nc(C)c1C | inactive |
| CN(C)CCCN(C(=O)c1cc(-c2cccs2)nc2ccccc12)c1nc2c(F)cccc2s1 | inconclusive: 35.5 µM [inhibitor, single point] |
| O=C(Nc1nc2ccccc2n1CCN1CCOCC1)c1cn(-c2ccccc2)nc1-c1ccccc1 | inconclusive: 22.4 µM [inhibitor, single point] |
| Brc1ccccc1OCCCn1cnc2ccccc21 | inconclusive: 16.4 µM [activator, partial curve] |
| CC1CCCN(C(=O)COC(=O)c2cccc(NS(=O)(=O)c3ccccc3)c2)C1 (configuration not stated) | inactive |
| CCOc1ccc(CNC(=O)C2CCCN(S(=O)(=O)c3ccc4c(ccn4C)c3)C2)cc1 (configuration not stated) | inconclusive: 35.5 µM [inhibitor, single point] |
| O=S(Cc1ccc(Br)cc1)Cc1nnc(SCc2ccc(Br)cc2)n1-c1ccccc1 (configuration not stated) | inconclusive: 14.6 µM [inhibitor, partial curve] |
| CCOCCCNc1ccc(-c2ccccc2)nn1 | inconclusive: 29.1 µM [inhibitor, single point] |
| COc1ccc(C)cc1Nc1nnc(C)c(=O)[nH]1 | inactive |
| Nc1ccc(-c2cnc3ccccc3n2)cc1 | inconclusive: 3.98 µM [inhibitor, partial curve, poor fit] |
| COc1cc2c(c(OC)c1O)-c1ccc(OC)c(=O)cc1C(NC(=O)C(F)(F)F)CC2 (configuration not stated) | inconclusive: 0.398 µM [inhibitor, partial curve, poor fit] |
| Cc1nnc(SCc2nc(N)nc(Nc3ccccc3)n2)s1 | inactive |
| Cc1nn(CC(=O)NCCc2ccccc2)c(=O)c2ccccc12 | inactive |
